Some results were stated once for a whole list of compounds, not compound by compound.
tested on: Aedes aegypti (yellow fever mosquito); test: Example B9: Aedes aegypti adult females on treated tissue culture plates; assay type: in vivo; settings: application rate 200 ppm in ethanol; after 48 h

| Structure (SMILES) | control of Aedes aegypti |
| --- | --- |
| CCS(=O)(=O)c1cccnc1-c1cn2nc(C(F)(F)F)sc2n1 [Compound P2, 6-(3-ethylsulfonyl-2-pyridyl)-2-(trifluoromethyl)imidazo[2,1-b][1,3,4]thiadiazole] | at least 80% |
| CCS(=O)(=O)c1cc(C(F)(F)F)cnc1-c1nc2sc(C(F)(F)F)nn2c1C [Compound P3, 6-[3-ethylsulfonyl-5-(trifluoromethyl)-2-pyridyl]-5-methyl-2-(trifluoromethyl)imidazo[2,1-b][1,3,4]thiadiazole] | at least 80% |
| CCS(=O)(=O)c1cc(C(F)(F)F)cnc1-c1cn2nc(C(F)(F)F)sc2n1 [Compound P4] | at least 80% |
| CCS(=O)(=O)c1cc(C(F)(F)F)cnc1-c1cn2nc(C(F)(F)C(F)(F)F)sc2n1 [Compound P8] | at least 80% |
